{"source": "PubChem BioAssay AID1224830, NIAID, 2016", "test": "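Genes whose knock-down alters the TNF-alpha reporter response to LPS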 (primary screen)", "cell system": "human THP-1 monocytic leukaemia cells, TNF dual-luciferase reporter clone, PMA-differentiated to macrophage-like cells", "reagent": "siRNA pool against human genes, 50 nM", "duration": "LPS for 4 h, given about 3 days after siRNA transfection", "treatment": "bacterial LPS (TLR4 ligand), 10 ng/ml", "detection": "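TNF firefly reporter luminescence divided by renilla, normalised to the plate median, then turned into a robust z-score for each replicate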", "reading the numbers": "TNF reporter robust z-score: higher = stronger TNF reporter response to LPS", "active means": "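Each well counts as active if its z-score is over 2.8 or under -1.5; controls are left without a call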", "note": "This is an unselected part of about 18,000 reagents tested. About 2,900 of all reagents (16%) were called active. 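Calls are made per well; low scores hint the gene aids the LPS response, high scores that it dampens it.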 A number with no mark means an inactive call. Repeated entries: four replicate wells of each siRNA pool."}
{"Gene":"NAA16","TNF reporter robust z-score":0.45}
{"Gene":"NAA16","TNF reporter robust z-score":-0.69}
{"Gene":"NAA16","TNF reporter robust z-score":0.51}
{"Gene":"NAA16","TNF reporter robust z-score":1.48}
{"Gene":"ANKMY1","TNF reporter robust z-score":-0.89}
{"Gene":"ANKMY1","TNF reporter robust z-score":-1.14}
{"Gene":"ANKMY1","TNF reporter robust z-score":-1.01}
{"Gene":"ANKMY1","TNF reporter robust z-score":-0.66}
{"Gene":"GALM","TNF reporter robust z-score":"-2.14 (active)"}
{"Gene":"GALM","TNF reporter robust z-score":-0.72}
{"Gene":"GALM","TNF reporter robust z-score":0.33}
{"Gene":"GALM","TNF reporter robust z-score":0.14}
{"Gene":"FAM222A","TNF reporter robust z-score":-0.14}
{"Gene":"FAM222A","TNF reporter robust z-score":0.48}
{"Gene":"FAM222A","TNF reporter robust z-score":0.13}
{"Gene":"FAM222A","TNF reporter robust z-score":0}
{"Gene":"DESI1","TNF reporter robust z-score":2.23}
{"Gene":"DESI1","TNF reporter robust z-score":2.17}
{"Gene":"DESI1","TNF reporter robust z-score":"4.11 (active)"}
{"Gene":"DESI1","TNF reporter robust z-score":2.43}
{"Gene":"PNRC1","TNF reporter robust z-score":-1.33}
{"Gene":"PNRC1","TNF reporter robust z-score":-0.72}
{"Gene":"PNRC1","TNF reporter robust z-score":"-1.64 (active)"}
{"Gene":"PNRC1","TNF reporter robust z-score":-0.98}
{"Gene":"ABHD13","TNF reporter robust z-score":-0.23}
{"Gene":"ABHD13","TNF reporter robust z-score":-0.92}
{"Gene":"ABHD13","TNF reporter robust z-score":0.38}
{"Gene":"ABHD13","TNF reporter robust z-score":-0.33}
{"Gene":"HABP2","TNF reporter robust z-score":0.63}
{"Gene":"HABP2","TNF reporter robust z-score":-0.42}
{"Gene":"HABP2","TNF reporter robust z-score":0.73}
{"Gene":"HABP2","TNF reporter robust z-score":0.26}
{"Gene":"FSD2","TNF reporter robust z-score":-1.1}
{"Gene":"FSD2","TNF reporter robust z-score":-1.03}
{"Gene":"FSD2","TNF reporter robust z-score":-0.42}
{"Gene":"FSD2","TNF reporter robust z-score":-0.03}
{"Gene":"KERA","TNF reporter robust z-score":-0.04}
{"Gene":"KERA","TNF reporter robust z-score":0.22}
{"Gene":"KERA","TNF reporter robust z-score":-0.2}
{"Gene":"KERA","TNF reporter robust z-score":0.15}
{"Gene":"CC2D1B","TNF reporter robust z-score":0.1}
{"Gene":"CC2D1B","TNF reporter robust z-score":0.46}
{"Gene":"CC2D1B","TNF reporter robust z-score":-0.13}
{"Gene":"CC2D1B","TNF reporter robust z-score":0.39}
{"Gene":"AIFM2","TNF reporter robust z-score":1.12}
{"Gene":"AIFM2","TNF reporter robust z-score":1.25}
{"Gene":"AIFM2","TNF reporter robust z-score":1}
{"Gene":"AIFM2","TNF reporter robust z-score":1.79}

Laid out differently: entries from further up.
Gene	TNF reporter robust z-score
CC2D1B	0.46
CC2D1B	-0.13
CC2D1B	0.39
AIFM2	1.12
AIFM2	1.25
